Measured values from the supplement of paper PMC12067093, “Discovery and optimisation of a covalent ligand for TRIM25 and its application to targeted protein ubiquitination” (Chemical Science, 2025).
The list shows a part of the results.

Chains of the proteins cited; added tags and fusions are not shown. Lines headed by an entry give the natural chain unless they say otherwise; changes in a name come on top.
UniProt Q70J99: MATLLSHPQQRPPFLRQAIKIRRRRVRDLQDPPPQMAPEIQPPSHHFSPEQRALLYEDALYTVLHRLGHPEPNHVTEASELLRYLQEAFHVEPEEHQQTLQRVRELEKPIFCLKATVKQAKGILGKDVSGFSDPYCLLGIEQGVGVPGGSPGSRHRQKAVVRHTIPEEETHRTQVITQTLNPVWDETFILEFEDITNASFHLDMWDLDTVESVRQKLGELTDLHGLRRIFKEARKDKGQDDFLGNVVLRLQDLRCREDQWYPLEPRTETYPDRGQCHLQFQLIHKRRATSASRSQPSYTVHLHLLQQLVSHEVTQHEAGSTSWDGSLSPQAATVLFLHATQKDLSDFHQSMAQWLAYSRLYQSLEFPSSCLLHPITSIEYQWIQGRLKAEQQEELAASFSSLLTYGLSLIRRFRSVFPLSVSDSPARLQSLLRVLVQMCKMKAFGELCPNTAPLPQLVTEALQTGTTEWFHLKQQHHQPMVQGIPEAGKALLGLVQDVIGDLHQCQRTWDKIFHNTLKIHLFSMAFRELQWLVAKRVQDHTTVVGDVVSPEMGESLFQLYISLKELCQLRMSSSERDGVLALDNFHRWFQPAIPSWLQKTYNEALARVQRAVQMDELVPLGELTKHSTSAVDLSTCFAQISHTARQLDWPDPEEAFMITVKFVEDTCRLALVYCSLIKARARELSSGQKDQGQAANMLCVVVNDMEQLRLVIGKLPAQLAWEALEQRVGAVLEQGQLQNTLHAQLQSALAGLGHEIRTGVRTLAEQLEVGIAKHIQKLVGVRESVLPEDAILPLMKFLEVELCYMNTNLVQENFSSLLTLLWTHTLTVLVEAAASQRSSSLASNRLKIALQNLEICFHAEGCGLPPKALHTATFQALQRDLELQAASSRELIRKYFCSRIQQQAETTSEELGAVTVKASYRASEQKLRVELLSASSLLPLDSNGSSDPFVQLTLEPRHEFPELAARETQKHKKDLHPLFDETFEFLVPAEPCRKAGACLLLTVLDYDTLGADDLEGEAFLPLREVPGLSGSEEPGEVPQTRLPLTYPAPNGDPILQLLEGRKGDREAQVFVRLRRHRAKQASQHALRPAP
UniProt Q93009, whole entry, looked up: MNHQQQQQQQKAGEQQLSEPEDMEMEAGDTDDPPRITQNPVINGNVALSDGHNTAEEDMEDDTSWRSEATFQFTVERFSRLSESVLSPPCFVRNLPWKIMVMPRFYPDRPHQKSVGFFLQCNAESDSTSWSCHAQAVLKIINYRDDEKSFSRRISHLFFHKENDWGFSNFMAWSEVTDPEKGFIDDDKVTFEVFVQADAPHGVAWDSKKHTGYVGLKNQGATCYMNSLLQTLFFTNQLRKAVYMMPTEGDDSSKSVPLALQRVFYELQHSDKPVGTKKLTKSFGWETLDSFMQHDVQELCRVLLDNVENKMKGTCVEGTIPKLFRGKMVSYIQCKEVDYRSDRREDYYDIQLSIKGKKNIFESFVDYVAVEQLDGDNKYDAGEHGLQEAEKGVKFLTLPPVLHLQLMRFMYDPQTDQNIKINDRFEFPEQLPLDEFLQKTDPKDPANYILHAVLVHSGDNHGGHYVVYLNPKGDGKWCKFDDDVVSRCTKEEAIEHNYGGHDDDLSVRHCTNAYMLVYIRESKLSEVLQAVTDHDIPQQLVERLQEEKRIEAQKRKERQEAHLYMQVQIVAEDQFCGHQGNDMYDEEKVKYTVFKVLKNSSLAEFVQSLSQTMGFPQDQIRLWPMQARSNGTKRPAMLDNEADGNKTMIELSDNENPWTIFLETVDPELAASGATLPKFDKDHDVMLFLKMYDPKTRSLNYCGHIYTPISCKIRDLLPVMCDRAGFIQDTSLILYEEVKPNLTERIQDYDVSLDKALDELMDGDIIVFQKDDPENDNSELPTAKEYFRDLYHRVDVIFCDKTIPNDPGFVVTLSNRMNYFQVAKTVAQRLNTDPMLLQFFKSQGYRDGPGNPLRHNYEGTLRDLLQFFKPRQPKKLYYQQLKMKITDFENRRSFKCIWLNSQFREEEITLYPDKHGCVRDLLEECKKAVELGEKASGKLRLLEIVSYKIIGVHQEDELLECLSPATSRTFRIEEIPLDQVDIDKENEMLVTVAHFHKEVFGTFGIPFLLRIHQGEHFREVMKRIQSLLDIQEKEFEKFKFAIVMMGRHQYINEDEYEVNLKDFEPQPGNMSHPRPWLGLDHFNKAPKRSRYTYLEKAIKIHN
UniProt Q9Y3C8: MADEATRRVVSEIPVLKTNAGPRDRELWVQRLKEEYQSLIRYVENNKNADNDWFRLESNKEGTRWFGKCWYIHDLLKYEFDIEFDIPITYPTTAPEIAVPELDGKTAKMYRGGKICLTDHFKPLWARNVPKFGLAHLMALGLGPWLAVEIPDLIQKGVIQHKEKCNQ
UniProt O60287: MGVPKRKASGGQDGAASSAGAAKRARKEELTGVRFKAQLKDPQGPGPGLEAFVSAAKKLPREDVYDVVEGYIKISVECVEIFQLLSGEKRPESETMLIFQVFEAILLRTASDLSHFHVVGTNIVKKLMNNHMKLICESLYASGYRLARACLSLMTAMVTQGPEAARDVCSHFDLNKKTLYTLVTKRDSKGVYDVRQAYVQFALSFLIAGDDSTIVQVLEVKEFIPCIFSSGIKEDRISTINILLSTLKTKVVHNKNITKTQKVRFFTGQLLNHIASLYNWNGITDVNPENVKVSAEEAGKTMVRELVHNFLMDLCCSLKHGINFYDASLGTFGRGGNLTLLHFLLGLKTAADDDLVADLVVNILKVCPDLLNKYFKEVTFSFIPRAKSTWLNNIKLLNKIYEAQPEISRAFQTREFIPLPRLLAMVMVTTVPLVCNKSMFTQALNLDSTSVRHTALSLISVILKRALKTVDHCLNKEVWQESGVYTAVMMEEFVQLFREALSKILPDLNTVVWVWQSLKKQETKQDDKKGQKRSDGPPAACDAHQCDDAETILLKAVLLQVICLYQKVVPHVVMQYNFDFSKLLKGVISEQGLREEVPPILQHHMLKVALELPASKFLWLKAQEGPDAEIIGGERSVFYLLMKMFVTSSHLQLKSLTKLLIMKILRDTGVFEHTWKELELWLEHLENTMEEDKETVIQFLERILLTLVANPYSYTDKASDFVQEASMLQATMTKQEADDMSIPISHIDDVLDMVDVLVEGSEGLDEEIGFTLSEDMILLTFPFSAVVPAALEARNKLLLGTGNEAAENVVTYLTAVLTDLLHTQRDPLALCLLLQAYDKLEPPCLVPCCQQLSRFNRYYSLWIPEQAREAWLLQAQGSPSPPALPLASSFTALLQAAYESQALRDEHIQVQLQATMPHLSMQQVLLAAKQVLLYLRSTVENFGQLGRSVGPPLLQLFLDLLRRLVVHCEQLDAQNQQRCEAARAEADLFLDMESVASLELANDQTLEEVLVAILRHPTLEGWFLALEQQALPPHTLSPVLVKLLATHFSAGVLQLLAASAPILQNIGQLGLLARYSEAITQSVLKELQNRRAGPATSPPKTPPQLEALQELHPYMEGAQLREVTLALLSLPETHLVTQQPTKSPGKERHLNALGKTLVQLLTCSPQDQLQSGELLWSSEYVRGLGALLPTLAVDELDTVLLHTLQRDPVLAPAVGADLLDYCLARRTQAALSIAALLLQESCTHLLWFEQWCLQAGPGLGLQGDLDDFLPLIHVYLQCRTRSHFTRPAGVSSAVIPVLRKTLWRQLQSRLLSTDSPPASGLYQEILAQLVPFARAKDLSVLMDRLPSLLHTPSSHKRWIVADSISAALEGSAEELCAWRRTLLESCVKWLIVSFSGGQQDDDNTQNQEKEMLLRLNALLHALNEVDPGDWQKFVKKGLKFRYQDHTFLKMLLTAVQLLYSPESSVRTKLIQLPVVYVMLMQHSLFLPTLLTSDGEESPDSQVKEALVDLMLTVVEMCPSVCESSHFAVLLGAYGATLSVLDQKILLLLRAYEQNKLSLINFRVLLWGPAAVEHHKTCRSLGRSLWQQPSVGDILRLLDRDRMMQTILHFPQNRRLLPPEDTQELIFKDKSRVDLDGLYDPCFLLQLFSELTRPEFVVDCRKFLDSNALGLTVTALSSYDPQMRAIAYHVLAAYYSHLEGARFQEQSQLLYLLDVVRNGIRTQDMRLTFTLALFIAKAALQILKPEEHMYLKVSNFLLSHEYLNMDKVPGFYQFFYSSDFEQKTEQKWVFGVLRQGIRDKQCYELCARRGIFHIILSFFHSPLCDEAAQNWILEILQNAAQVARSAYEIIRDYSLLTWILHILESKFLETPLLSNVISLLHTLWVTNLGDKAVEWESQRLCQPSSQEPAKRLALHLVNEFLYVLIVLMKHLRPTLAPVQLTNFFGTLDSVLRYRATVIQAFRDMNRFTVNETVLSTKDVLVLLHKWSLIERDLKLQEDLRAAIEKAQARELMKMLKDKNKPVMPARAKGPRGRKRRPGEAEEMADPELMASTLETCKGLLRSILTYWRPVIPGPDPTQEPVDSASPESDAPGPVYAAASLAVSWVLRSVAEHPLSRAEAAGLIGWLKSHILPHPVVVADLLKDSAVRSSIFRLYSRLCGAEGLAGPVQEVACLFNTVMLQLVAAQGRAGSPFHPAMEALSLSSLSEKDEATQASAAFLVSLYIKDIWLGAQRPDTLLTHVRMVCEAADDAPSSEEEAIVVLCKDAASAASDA
UniProt P10746: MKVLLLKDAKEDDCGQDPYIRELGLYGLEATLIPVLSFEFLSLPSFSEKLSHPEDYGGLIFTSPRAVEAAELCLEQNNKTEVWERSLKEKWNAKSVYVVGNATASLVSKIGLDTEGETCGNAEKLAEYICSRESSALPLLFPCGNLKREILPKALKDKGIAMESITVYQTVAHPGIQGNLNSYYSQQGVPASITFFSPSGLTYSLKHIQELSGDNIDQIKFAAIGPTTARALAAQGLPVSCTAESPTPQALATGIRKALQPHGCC
UniProt Q9Y5K5, whole entry, looked up: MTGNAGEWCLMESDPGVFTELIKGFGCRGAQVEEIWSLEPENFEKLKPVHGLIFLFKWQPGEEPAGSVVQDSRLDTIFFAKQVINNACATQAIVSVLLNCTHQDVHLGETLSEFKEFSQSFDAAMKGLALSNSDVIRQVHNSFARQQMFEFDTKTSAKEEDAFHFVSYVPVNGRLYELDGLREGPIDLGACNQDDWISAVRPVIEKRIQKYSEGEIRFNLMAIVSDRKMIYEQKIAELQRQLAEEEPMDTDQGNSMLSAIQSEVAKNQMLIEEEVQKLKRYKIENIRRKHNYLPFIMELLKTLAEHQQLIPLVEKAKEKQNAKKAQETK
UniProt Q8N806: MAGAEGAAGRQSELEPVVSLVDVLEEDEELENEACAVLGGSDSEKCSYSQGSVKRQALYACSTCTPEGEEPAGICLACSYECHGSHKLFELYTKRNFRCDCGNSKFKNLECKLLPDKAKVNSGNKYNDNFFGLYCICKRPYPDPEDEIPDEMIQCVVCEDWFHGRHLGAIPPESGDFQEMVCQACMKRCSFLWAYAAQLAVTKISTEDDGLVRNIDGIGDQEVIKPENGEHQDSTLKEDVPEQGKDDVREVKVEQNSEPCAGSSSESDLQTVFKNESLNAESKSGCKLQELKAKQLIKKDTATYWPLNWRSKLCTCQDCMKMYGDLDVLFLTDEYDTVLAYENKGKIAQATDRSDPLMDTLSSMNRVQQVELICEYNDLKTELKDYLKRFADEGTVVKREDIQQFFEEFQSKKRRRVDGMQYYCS
UniProt Q96T88: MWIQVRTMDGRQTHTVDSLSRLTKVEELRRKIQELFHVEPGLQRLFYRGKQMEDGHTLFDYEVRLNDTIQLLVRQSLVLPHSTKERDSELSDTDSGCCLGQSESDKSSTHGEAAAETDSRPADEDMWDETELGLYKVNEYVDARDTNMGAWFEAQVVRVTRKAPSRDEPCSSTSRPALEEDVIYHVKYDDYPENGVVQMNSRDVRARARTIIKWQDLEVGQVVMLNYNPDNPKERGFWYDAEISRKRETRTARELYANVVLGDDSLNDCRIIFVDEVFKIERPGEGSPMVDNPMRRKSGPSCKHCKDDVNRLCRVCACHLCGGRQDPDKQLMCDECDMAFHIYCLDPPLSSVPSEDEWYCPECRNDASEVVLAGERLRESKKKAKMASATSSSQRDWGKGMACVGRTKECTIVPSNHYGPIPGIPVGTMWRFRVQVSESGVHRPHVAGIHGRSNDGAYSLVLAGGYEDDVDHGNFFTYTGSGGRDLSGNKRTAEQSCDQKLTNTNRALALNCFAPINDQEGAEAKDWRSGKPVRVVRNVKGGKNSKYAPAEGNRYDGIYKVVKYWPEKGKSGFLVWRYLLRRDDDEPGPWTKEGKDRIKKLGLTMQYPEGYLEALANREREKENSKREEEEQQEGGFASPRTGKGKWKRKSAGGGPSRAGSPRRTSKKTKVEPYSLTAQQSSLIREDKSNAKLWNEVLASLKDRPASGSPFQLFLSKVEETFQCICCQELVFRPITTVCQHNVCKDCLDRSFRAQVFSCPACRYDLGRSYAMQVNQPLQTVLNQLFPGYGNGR
UniProt Q9BRT2: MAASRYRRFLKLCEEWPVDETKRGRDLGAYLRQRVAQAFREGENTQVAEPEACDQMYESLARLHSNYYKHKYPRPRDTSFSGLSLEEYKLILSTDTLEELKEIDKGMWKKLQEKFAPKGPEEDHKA

Compound: Cc1cc(ccc1-c1ccccc1)C(=O)N1CCCN(CC1)C(=O)CCl [compound 10]
Experiment: probe-labelled cysteine peptide fold change vs DMSO (competition) (log2 fold change); higher = less target engagement (more negative = stronger competition)
Details: THP-1, incubation time: 4 h
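Note: competitive profiling in live THP-1 cells: cysteine peptides tagged with an iodoacetamide desthiobiotin (IA-DTB) probe, intensity after compound treatment relative to DMSO-treated cells.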

UNC13D_Q70J99_505_ALLGLVQDVIGDLHQCQR (UniProt Q70J99)
probe-labelled cysteine peptide fold change (10 µM): 0.245 | probe-labelled cysteine peptide fold change (50 µM): 0.285

UQCRH_P07919_53_LELCDER (UniProt P07919)
probe-labelled cysteine peptide fold change (10 µM): -0.429 | probe-labelled cysteine peptide fold change (50 µM): -0.153

USP7_Q93009_799_DLYHRVDVIFCDK (UniProt Q93009)
probe-labelled cysteine peptide fold change (10 µM): -0.0307 | probe-labelled cysteine peptide fold change (50 µM): -0.336

UFC1_Q9Y3C8_116_ICLTDHFKPLWAR (UniProt Q9Y3C8)
probe-labelled cysteine peptide fold change (10 µM): -0.183 | probe-labelled cysteine peptide fold change (50 µM): -1.26

USP34_Q70CQ2_2033_CQVADMK (UniProt Q70CQ2)
probe-labelled cysteine peptide fold change (10 µM): 0.111 | probe-labelled cysteine peptide fold change (50 µM): -0.0995

USP7_Q93009_334_MVSYIQCK (UniProt Q93009)
probe-labelled cysteine peptide fold change (10 µM): -0.129 | probe-labelled cysteine peptide fold change (50 µM): 0.0485

UNC13D_Q70J99_276_GQCHLQFQLIHK (UniProt Q70J99)
probe-labelled cysteine peptide fold change (10 µM): 0.000718 | probe-labelled cysteine peptide fold change (50 µM): -0.0494

UHRF1BP1L_A0JNW5_592_SECHQDQPR (UniProt A0JNW5)
probe-labelled cysteine peptide fold change (10 µM): 0.307 | probe-labelled cysteine peptide fold change (50 µM): -0.402

USP15_Q9Y4E8_633+634_ISTETEETEGSLHCCK (UniProt Q9Y4E8)
probe-labelled cysteine peptide fold change (10 µM): -0.567 | probe-labelled cysteine peptide fold change (50 µM): -1.51

UGGT1_Q9NYU2_1475+1479_SLPQEWLWCETWCDDASK (UniProt Q9NYU2)
probe-labelled cysteine peptide fold change (10 µM): -0.291 | probe-labelled cysteine peptide fold change (50 µM): -0.0794

URB1_O60287_316_ELVHNFLMDLCCSLK (UniProt O60287)
probe-labelled cysteine peptide fold change (10 µM): 0.0303 | probe-labelled cysteine peptide fold change (50 µM): 0.0568

UROS_P10746_73_AVEAAELCLEQNNK (UniProt P10746)
probe-labelled cysteine peptide fold change (10 µM): 0.112 | probe-labelled cysteine peptide fold change (50 µM): 0.196

USP13_Q92995_231_ENLWLNLTDGSVLCGK (UniProt Q92995)
probe-labelled cysteine peptide fold change (10 µM): 0.0774 | probe-labelled cysteine peptide fold change (50 µM): 0.113

URGCP_Q8TCY9_629_EMGQFYEAESCLVEAGRLPAGQR (UniProt Q8TCY9)
probe-labelled cysteine peptide fold change (10 µM): -0.181 | probe-labelled cysteine peptide fold change (50 µM): -0.317

USP8_P40818_939_STVQCLTCHKK (UniProt P40818)
probe-labelled cysteine peptide fold change (10 µM): -0.232 | probe-labelled cysteine peptide fold change (50 µM): -0.515

UCHL5_Q9Y5K5_9_MTGNAGEWCLMESDPGVFTELIK (UniProt Q9Y5K5)
probe-labelled cysteine peptide fold change (10 µM): -0.0942 | probe-labelled cysteine peptide fold change (50 µM): -0.182

UBR7_Q8N806_424_VDGMQYYCS (UniProt Q8N806)
probe-labelled cysteine peptide fold change (10 µM): -0.00109 | probe-labelled cysteine peptide fold change (50 µM): -0.295

UGDH_O60701_20_ICCIGAGYVGGPTCSVIAHMCPEIR (UniProt O60701)
probe-labelled cysteine peptide fold change (10 µM): 0.138 | probe-labelled cysteine peptide fold change (50 µM): 0.346

USP15_Q9Y4E8_634_ISTETEETEGSLHCCK (UniProt Q9Y4E8)
probe-labelled cysteine peptide fold change (10 µM): -0.145 | probe-labelled cysteine peptide fold change (50 µM): -0.0655

USP15_Q9Y4E8_139_LCENGNMNNVVTR (UniProt Q9Y4E8)
probe-labelled cysteine peptide fold change (10 µM): 0.00708 | probe-labelled cysteine peptide fold change (50 µM): -0.0543

UROS_P10746_119_IGLDTEGETCGNAEK (UniProt P10746)
probe-labelled cysteine peptide fold change (10 µM): -0.0553 | probe-labelled cysteine peptide fold change (50 µM): -0.0029

USO1_O60763_678_CQNEQLQTAVTQQVSQIQQHK (UniProt O60763)
probe-labelled cysteine peptide fold change (10 µM): -0.0859 | probe-labelled cysteine peptide fold change (50 µM): -0.0137

UHRF1_Q96T88_302_SGPSCK (UniProt Q96T88)
probe-labelled cysteine peptide fold change (10 µM): 0.0872 | probe-labelled cysteine peptide fold change (50 µM): -0.00697

UQCRC1_P31930_380_LCTSATESEVAR (UniProt P31930)
probe-labelled cysteine peptide fold change (10 µM): -0.0203 | probe-labelled cysteine peptide fold change (50 µM): 0.213

UBR7_Q8N806_260_VEQNSEPCAGSSSESDLQTVFK (UniProt Q8N806)
probe-labelled cysteine peptide fold change (10 µM): -0.17 | probe-labelled cysteine peptide fold change (50 µM): -0.285

UROS_P10746_14_EDDCGQDPYIR (UniProt P10746)
probe-labelled cysteine peptide fold change (10 µM): -0.161 | probe-labelled cysteine peptide fold change (50 µM): 0.0974

USP40_Q9NVE5_1054_RIEICLEPLQK (UniProt Q9NVE5)
probe-labelled cysteine peptide fold change (10 µM): 0.0209 | probe-labelled cysteine peptide fold change (50 µM): -0.0411

UFC1_Q9Y3C8_116_ICLTDHFK (UniProt Q9Y3C8)
probe-labelled cysteine peptide fold change (10 µM): -0.173 | probe-labelled cysteine peptide fold change (50 µM): -0.226

UPF1_Q92900_683_QLILVGDHCQLGPVVMCK (UniProt Q92900)
probe-labelled cysteine peptide fold change (10 µM): 0.172 | probe-labelled cysteine peptide fold change (50 µM): -0.219

UHRF1_Q96T88_170_DEPCSSTSRPALEEDVIYHVK (UniProt Q96T88)
probe-labelled cysteine peptide fold change (10 µM): -0.141 | probe-labelled cysteine peptide fold change (50 µM): -0.0348

USP33_Q8TEY7_278_CLMDLLHEELK (UniProt Q8TEY7)
probe-labelled cysteine peptide fold change (10 µM): 0.136 | probe-labelled cysteine peptide fold change (50 µM): -0.0902

UQCC2_Q9BRT2_13_LCEEWPVDETK (UniProt Q9BRT2)
probe-labelled cysteine peptide fold change (10 µM): 0.106 | probe-labelled cysteine peptide fold change (50 µM): 0.189

UNC119B_A6NIH7_85_VTENYLCKPEDNIYSIDFTR (UniProt A6NIH7)
probe-labelled cysteine peptide fold change (10 µM): -0.113 | probe-labelled cysteine peptide fold change (50 µM): 0.137

URB1_O60287_315_ELVHNFLMDLCCSLK (UniProt O60287)
probe-labelled cysteine peptide fold change (10 µM): 0.17 | probe-labelled cysteine peptide fold change (50 µM): 0.0192

UROS_P10746_265_ALQPHGCC (UniProt P10746)
probe-labelled cysteine peptide fold change (10 µM): -0.0814 | probe-labelled cysteine peptide fold change (50 µM): -0.339

UFD1_Q92890_25_CFSVSMLAGPNDR (UniProt Q92890)
probe-labelled cysteine peptide fold change (10 µM): 0.0693 | probe-labelled cysteine peptide fold change (50 µM): 0.143

UCHL5_Q9Y5K5_9_TGNAGEWCLMESDPGVFTELIK (UniProt Q9Y5K5)
probe-labelled cysteine peptide fold change (10 µM): -0.209 | probe-labelled cysteine peptide fold change (50 µM): 0.0293

USP3_Q9Y6I4_362_NQENGPVCSLR (UniProt Q9Y6I4)
probe-labelled cysteine peptide fold change (10 µM): 0.12 | probe-labelled cysteine peptide fold change (50 µM): -0.247

USP16_Q9Y5T5_631_EVFNTDECSIQHCLYQFTR (UniProt Q9Y5T5)
probe-labelled cysteine peptide fold change (10 µM): -0.104 | probe-labelled cysteine peptide fold change (50 µM): -0.264

UHRF1_Q96T88_170_KAPSRDEPCSSTSR (UniProt Q96T88)
probe-labelled cysteine peptide fold change (10 µM): -0.1 | probe-labelled cysteine peptide fold change (50 µM): -0.0594

UROD_P06132_66_SPEACCELTLQPLR (UniProt P06132)
probe-labelled cysteine peptide fold change (10 µM): -0.0974 | probe-labelled cysteine peptide fold change (50 µM): -0.254

USP37_Q86T82_538_AEELEYSCEK (UniProt Q86T82)
probe-labelled cysteine peptide fold change (10 µM): 0.0939 | probe-labelled cysteine peptide fold change (50 µM): -0.0626

UIMC1_Q96RL1_661_VPSPGMEEAGCSR (UniProt Q96RL1)
probe-labelled cysteine peptide fold change (10 µM): -0.455 | probe-labelled cysteine peptide fold change (50 µM): -0.384
